PubChem BioAssay AID504764, Drosophila RNAi Screening Center – 2011
The screen tested about 22,000 reagents; this is an unselected part of those with a known target gene and a result. Of all reagents, 403 (1.9%) got an active call. 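Unnormalised raw counts per well; ratio z-scores behind the hit calls and whether each hit raises or lowers signal are not deposited.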 Unmarked entries are inactive. A plus sign joins genes that one reagent is predicted to hit. No sequences are given here. Not given: the amount of reagent.

- Aim: 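Knock-downs that raise or lower a Notch target reporter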 (primary screen)
- Cell system: Drosophila Kc167 cells
- Knock-down reagent: long dsRNA against Drosophila genes
- Duration: about 5 days (4 days dsRNA, then 24 h after transfection)
- Conditions: transfection of constitutively active membrane-tethered Notch lacking the extracellular domain, read 24 h later
- Detection: 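Firefly luciferase from an E(spl)m3 reporter with active Notch, plus control-promoter and uninduced reporter wells for normalisation; unnormalised counts, duplicate wells a and b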
- Scale: induced reporter light, run 1, well a and induced reporter light, run 1, well b: higher = more light from the Notch target reporter with active Notch; control promoter light, run 1, well a and control promoter light, run 1, well b: higher = more light from the viral control promoter (cell number, transfection, viability); uninduced reporter light, run 1, well a: higher = more light from the Notch target reporter without active Notch
- Rule for the call: 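Wells with low control signal or poorly matching duplicates excluded; duplicates averaged; per source plate, z beyond ±2 for induced/control log2 ratio or beyond ±1.8 for induced/uninduced marks a hit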
- Calls: active = modifier hit (raised or lowered Notch signal); inactive = not a hit

What is on record for CG32733 (retired record) + CG32797 [SID104197497]?
induced reporter light, run 1, well a: 73300; induced reporter light, run 1, well b: 78260; control promoter light, run 1, well a: 99095; control promoter light, run 1, well b: 1.19e5; uninduced reporter light, run 1, well a: 7385

For spz4 (GeneID 34572) [SID104182202], what was measured?
induced reporter light, run 1, well a: 1.02e5; induced reporter light, run 1, well b: 1.27e5; control promoter light, run 1, well a: 70560; control promoter light, run 1, well b: 1.04e5; uninduced reporter light, run 1, well a: 15530

With gny (GeneID 34409) [SID104182602], how do the results read?
induced reporter light, run 1, well a: 2.41e5; induced reporter light, run 1, well b: 2.62e5; control promoter light, run 1, well a: 2.12e5; control promoter light, run 1, well b: 2.29e5; uninduced reporter light, run 1, well a: 20655

For sano (GeneID 37185) [SID104185957], what was measured?
induced reporter light, run 1, well a: 97535; induced reporter light, run 1, well b: 95175; control promoter light, run 1, well a: 1.66e5; control promoter light, run 1, well b: 2.18e5; uninduced reporter light, run 1, well a: 8720

What did the screen give for kek1 (GeneID 34688) [SID104183343]?
induced reporter light, run 1, well a: 1.55e5; induced reporter light, run 1, well b: 1.64e5; control promoter light, run 1, well a: 1.73e5; control promoter light, run 1, well b: 1.72e5; uninduced reporter light, run 1, well a: 13150

How did the screen score Tbp (GeneID 37476) [SID104184454]?
induced reporter light, run 1, well a: 16685; induced reporter light, run 1, well b: 14085; control promoter light, run 1, well a: 10110; control promoter light, run 1, well b: 8605; uninduced reporter light, run 1, well a: 1770

How did the screen score Rich (GeneID 40456) [SID104191399]?
induced reporter light, run 1, well a: 1.12e5; induced reporter light, run 1, well b: 1.58e5; control promoter light, run 1, well a: 92595; control promoter light, run 1, well b: 1.08e5; uninduced reporter light, run 1, well a: 11320

Which result is listed for ND-51 (GeneID 33852) [SID104182937]?
induced reporter light, run 1, well a: 60415; induced reporter light, run 1, well b: 51730; control promoter light, run 1, well a: 64950; control promoter light, run 1, well b: 54965; uninduced reporter light, run 1, well a: 5240

How did the screen score Gr32a (GeneID 34545) [SID104182192]?
induced reporter light, run 1, well a: 1.10e5; induced reporter light, run 1, well b: 1.34e5; control promoter light, run 1, well a: 73215; control promoter light, run 1, well b: 96725; uninduced reporter light, run 1, well a: 16345

How did the screen score CG15517 (GeneID 43537) [SID104194848]?
induced reporter light, run 1, well a: 99980; induced reporter light, run 1, well b: 1.02e5; control promoter light, run 1, well a: 1.49e5; control promoter light, run 1, well b: 1.49e5; uninduced reporter light, run 1, well a: 9620

What is on record for CG14419 (GeneID 31276) [SID104197708]?
induced reporter light, run 1, well a: 1.12e5; induced reporter light, run 1, well b: 1.08e5; control promoter light, run 1, well a: 2.06e5; control promoter light, run 1, well b: 1.91e5; uninduced reporter light, run 1, well a: 8295

Which result is listed for CG2260 (GeneID 31732) [SID104198015]?
induced reporter light, run 1, well a: 2.63e5; induced reporter light, run 1, well b: 2.04e5; control promoter light, run 1, well a: 3.38e5; control promoter light, run 1, well b: 2.84e5; uninduced reporter light, run 1, well a: 14038

With Arf4 (GeneID 43823) [SID104196987], how do the results read?
induced reporter light, run 1, well a: 1.34e5 (active); induced reporter light, run 1, well b: 1.74e5; control promoter light, run 1, well a: 1.61e5; control promoter light, run 1, well b: 1.59e5; uninduced reporter light, run 1, well a: 9185

With CG5181 (GeneID 34018) [SID104182617], how do the results read?
induced reporter light, run 1, well a: 1.25e5; induced reporter light, run 1, well b: 1.43e5; control promoter light, run 1, well a: 1.80e5; control promoter light, run 1, well b: 1.74e5; uninduced reporter light, run 1, well a: 13285

With CG10336 (GeneID 35122) [SID104181829], what does the deposit list?
induced reporter light, run 1, well a: 1.79e5; induced reporter light, run 1, well b: 1.83e5; control promoter light, run 1, well a: 2.07e5; control promoter light, run 1, well b: 1.97e5; uninduced reporter light, run 1, well a: 15200

For CG4467 (GeneID 42747) [SID104195377], what was measured?
induced reporter light, run 1, well a: 1.57e5; induced reporter light, run 1, well b: 1.75e5; control promoter light, run 1, well a: 1.92e5; control promoter light, run 1, well b: 2.16e5; uninduced reporter light, run 1, well a: 12250

For CG13606 (GeneID 42873) [SID104194401], what was measured?
induced reporter light, run 1, well a: 1.43e5; induced reporter light, run 1, well b: 1.67e5; control promoter light, run 1, well a: 1.90e5; control promoter light, run 1, well b: 1.69e5; uninduced reporter light, run 1, well a: 12492

With CG14684 (GeneID 41281) [SID104194699], how do the results read?
induced reporter light, run 1, well a: 84475; induced reporter light, run 1, well b: 74955; control promoter light, run 1, well a: 73470; control promoter light, run 1, well b: 53235; uninduced reporter light, run 1, well a: 5925

Limited to “control promoter light, run 1, well b” (2 entries from above):
ND-51 (GeneID 33852) [SID104182937] = 54965
Gr32a (GeneID 34545) [SID104182192] = 96725
